The values that follow come from ChEMBL document CHEMBL5154664, “Imidazolylacetophenone oxime-based multifunctional neuroprotective agents: Discovery and structure-activity relationships” (Eur J Med Chem, 2022).

The nature of this assay: Inhibition of LPS induced NO production in mouse BV-2 cells by Griess reagent based analysis. Format: functional, cell-based. (Nitrite, measured by Griess reagent, commonly stands in for NO production.)

`Clc1ccc(CO/N=C(\Cn2ccnc2)c2ccc(Cl)cc2Cl)c(Cl)c1` [OXICONAZOLE]: the EC50 turned out to be 13.5 µM.

The term EC50 denotes the concentration needed to bring the measured effect to its halfway point. High values mean lower potency in that assay, low ones higher potency in that assay.
